Measured values from patent publication US8962697B2 (Interface Biologics Inc., priority 2006, dated 2015).

The substances below were run on Staphopain A and B (assay: Staphopain A and B bioresponsive degradation assay). Details: 100 nM staphopain, 1 μM substrate, room temperature, 2 hr.
Format: biochemical

Substance | Degradation of peptide substrate by staphopain (fragment observed)
Pro-arg-arg-ile-sys-val (PRRICV) [LAR-7048] | No degradation
val-phe-phe-arg-arg-gln-thr-ala (VFFRRQTA) [LAR-7047] | No degradation
β-ala-asp-asp-ile-gly-thr-ser-arg-pro-gln-glu (ADDIGTSRPQE; N-terminal beta-alanine) [LAR-7022, peptide targeted to microbial excreted proteases (aureolysin, staphopain)] | produced specific fragment pick: 717.37 corresponding to TSRPQE sequence
